These are yes or no findings as the source states them, for the method shown. Binding seen in cells or lysates may run through a third protein. Some entries that bind do so weakly or less than the wild type.
Tests used:
[1] = target: RFP-tagged full-length Shank3 (rat) (UniProt Q9JLU4); experiment: co-IP; HCN1 and full-length Shank3 in transfected cells; precipitating matrix not told (Additional file 1: Fig. S2)
[2] = target: His6-SUMO fusion protein of the Shank3 Ank repeats (residues 99-348) (rat) (UniProt Q9JLU4); experiment: pull-down; immobilized His6-SUMO fusion proteins of Shank3 (SPN-Ank or Ank repeats alone; SUMO control) incubated with lysates of 293T cells expressing GFP-tagged proteins; Western blot; only the target purified
[3] = target: His6-SUMO fusion protein of the complete Shank3 N-terminus (SPN-Ank, residues 1-348) (rat) (UniProt Q9JLU4); experiment: as above
[4] = target: RFP-tagged full-length Shank3 (rat) (UniProt Q9JLU4); experiment: co-IP; 293T cells coexpressing RFP-tagged Shank3 constructs with GFP-/Emerald-tagged catenins; RFP-trap beads; IP buffer (50 mM Tris pH 8, 120 mM NaCl, 0.5% NP40, 1 mM EDTA); Western blot

Protein sequences, listed by entry. Tags and fused reporters are not part of them. Lines headed by an entry give the natural chain unless they say otherwise; changes in a name come on top. Residues count along the entry.
UniProt Q9JLU4: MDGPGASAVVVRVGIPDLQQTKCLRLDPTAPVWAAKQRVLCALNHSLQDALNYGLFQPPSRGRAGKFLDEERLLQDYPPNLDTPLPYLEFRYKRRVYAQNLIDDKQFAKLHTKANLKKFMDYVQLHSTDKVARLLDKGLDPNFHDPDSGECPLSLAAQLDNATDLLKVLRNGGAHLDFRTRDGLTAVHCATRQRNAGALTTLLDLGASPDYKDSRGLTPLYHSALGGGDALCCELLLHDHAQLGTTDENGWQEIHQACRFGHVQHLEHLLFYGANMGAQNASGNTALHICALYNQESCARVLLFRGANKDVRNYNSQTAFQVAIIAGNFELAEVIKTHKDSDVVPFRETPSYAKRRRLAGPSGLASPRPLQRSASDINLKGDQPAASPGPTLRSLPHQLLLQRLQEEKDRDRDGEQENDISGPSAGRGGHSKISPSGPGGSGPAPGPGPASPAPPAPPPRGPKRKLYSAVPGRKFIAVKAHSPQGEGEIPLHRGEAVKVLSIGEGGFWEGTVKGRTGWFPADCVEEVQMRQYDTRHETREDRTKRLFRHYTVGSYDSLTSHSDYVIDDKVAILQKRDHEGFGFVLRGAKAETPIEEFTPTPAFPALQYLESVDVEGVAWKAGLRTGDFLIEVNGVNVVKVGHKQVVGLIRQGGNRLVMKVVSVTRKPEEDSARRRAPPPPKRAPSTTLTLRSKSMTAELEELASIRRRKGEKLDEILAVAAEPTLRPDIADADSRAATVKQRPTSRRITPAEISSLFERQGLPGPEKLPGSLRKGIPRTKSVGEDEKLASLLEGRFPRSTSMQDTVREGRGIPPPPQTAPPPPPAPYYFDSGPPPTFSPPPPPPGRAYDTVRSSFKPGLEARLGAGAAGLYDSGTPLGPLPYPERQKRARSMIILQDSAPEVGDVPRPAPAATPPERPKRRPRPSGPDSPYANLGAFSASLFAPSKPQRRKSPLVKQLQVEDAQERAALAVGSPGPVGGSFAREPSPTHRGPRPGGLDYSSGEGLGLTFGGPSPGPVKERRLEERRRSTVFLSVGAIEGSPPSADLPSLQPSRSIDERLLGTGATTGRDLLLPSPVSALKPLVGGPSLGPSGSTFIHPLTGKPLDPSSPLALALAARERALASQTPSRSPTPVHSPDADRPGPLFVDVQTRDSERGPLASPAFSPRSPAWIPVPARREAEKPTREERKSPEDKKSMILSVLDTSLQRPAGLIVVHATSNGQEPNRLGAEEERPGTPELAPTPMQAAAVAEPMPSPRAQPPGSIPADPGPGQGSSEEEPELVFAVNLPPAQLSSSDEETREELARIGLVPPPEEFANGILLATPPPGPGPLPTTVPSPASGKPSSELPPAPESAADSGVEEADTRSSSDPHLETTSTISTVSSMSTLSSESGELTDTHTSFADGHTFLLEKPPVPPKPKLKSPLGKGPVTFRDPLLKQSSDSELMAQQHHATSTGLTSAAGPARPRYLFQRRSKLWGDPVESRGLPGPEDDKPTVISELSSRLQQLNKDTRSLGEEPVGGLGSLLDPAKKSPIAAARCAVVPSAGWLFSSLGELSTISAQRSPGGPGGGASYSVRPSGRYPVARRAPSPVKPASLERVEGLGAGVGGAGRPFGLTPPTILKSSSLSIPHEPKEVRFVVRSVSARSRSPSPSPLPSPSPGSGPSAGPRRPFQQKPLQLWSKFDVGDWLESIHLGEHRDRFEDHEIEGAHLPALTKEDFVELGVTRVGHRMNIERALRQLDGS
His6-SUMO fusion protein of the complete Shank3 N-terminus (SPN-Ank, residues 1-348): residues 1-348 of Q9JLU4
His6-SUMO fusion protein of the Shank3 Ank repeats (residues 99-348): residues 99-348 of Q9JLU4
UniProt O88704: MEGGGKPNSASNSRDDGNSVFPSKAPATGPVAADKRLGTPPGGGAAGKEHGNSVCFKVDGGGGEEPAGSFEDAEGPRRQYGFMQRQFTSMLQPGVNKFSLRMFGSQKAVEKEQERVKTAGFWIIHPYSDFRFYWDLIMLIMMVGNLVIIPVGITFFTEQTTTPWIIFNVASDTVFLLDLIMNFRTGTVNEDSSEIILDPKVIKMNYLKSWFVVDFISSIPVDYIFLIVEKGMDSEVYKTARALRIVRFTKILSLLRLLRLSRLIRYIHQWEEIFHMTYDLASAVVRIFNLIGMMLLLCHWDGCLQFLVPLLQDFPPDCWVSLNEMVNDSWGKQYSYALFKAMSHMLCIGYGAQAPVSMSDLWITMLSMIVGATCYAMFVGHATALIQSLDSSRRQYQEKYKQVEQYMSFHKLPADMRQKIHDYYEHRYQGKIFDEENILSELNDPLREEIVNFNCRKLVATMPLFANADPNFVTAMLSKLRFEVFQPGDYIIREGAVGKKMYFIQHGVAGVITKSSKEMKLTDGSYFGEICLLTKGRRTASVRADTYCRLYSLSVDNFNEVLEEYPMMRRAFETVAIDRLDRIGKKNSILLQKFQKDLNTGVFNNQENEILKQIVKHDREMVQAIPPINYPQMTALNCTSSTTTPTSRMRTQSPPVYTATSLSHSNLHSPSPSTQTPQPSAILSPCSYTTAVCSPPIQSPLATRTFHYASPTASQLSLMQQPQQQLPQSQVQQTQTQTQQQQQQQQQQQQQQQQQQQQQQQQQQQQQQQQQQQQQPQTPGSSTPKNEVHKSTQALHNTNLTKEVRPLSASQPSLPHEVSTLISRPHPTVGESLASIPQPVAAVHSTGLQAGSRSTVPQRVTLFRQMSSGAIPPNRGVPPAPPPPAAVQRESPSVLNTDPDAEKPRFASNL
UniProt Q02248: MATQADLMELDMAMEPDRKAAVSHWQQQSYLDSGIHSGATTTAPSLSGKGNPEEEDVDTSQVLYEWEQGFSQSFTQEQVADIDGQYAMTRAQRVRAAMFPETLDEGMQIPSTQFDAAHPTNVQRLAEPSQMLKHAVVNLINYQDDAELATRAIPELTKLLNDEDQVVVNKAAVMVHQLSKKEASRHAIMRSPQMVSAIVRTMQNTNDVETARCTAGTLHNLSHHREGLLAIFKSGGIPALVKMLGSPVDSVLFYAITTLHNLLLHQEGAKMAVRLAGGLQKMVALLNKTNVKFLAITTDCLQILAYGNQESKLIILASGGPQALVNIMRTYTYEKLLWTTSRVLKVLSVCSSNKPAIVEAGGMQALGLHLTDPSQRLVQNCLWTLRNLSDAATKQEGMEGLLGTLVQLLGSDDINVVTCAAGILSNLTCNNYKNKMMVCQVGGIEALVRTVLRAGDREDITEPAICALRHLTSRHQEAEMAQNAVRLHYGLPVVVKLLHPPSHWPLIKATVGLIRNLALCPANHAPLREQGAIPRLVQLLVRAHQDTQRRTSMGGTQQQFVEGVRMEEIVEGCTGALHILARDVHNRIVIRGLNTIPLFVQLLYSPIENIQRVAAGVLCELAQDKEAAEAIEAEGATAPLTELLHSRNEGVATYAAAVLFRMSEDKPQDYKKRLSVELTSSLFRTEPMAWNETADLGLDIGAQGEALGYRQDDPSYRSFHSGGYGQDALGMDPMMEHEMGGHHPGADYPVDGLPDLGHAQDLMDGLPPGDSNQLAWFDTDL

binding [1]	binding [2]	binding [3]	binding [4]	Substance
no binding	no binding	no binding	–	EGFP-tagged HCN1 (from UniProt O88704 1-910)
–	no binding	no binding	binds	Emerald-β-catenin (from UniProt Q02248 1-781)
